Source: ChEMBL document CHEMBL4316593 (Eur J Med Chem, 2019)
This continues a long series; more values of the same kind are listed elsewhere.

How the values were obtained:
Type in all cases: cell-based
Details in all cases: U-87MG ATCC
[1] = Inhibition of RTK/PI3K/AKT/mTOR signaling in human U87 cells assessed as down regulation of CD274 gene expression at cytotoxic IC50 measured after 48 hrs relative to control
[2] = Inhibition of RTK/PI3K/AKT/mTOR signaling in human U87 cells assessed as up regulation of glutathione S-transferase omega 2 gene expression at cytotoxic IC50 measured after 48 hrs relative to control
[3] = Inhibition of RTK/PI3K/AKT/mTOR signaling in human U87 cells assessed as down regulation of CENPW gene expression at cytotoxic IC50 measured after 48 hrs relative to control
[4] = Inhibition of RTK/PI3K/AKT/mTOR signaling in human U87 cells assessed as down regulation of RBM25 gene expression at cytotoxic IC50 measured after 48 hrs relative to control
[5] = Inhibition of RTK/PI3K/AKT/mTOR signaling in human U87 cells assessed as down regulation of ZNF711 gene expression at cytotoxic IC50 measured after 48 hrs relative to control
[6] = Inhibition of RTK/PI3K/AKT/mTOR signaling in human U87 cells assessed as down regulation of GEM gene expression at cytotoxic IC50 measured after 48 hrs relative to control
[7] = Inhibition of RTK/PI3K/AKT/mTOR signaling in human U87 cells assessed as down regulation of SVIL-AS1 gene expression at cytotoxic IC50 measured after 48 hrs relative to control
[8] = Inhibition of RTK/PI3K/AKT/mTOR signaling in human U87 cells assessed as up regulation of MTHFD2 gene expression at cytotoxic IC50 measured after 48 hrs relative to control
[9] = Inhibition of RTK/PI3K/AKT/mTOR signaling in human U87 cells assessed as down regulation of YIPF1 gene expression at cytotoxic IC50 measured after 48 hrs relative to control
[10] = Inhibition of RTK/PI3K/AKT/mTOR signaling in human U87 cells assessed as up regulation of calmin gene expression at cytotoxic IC50 measured after 48 hrs relative to control
[11] = Inhibition of RTK/PI3K/AKT/mTOR signaling in human U87 cells assessed as up regulation of solute carrier family 16 member 6 gene expression at cytotoxic IC50 measured after 48 hrs relative to control
[12] = Inhibition of RTK/PI3K/AKT/mTOR signaling in human U87 cells assessed as up regulation of SPTBN5 gene expression at cytotoxic IC50 measured after 48 hrs relative to control
[13] = Inhibition of RTK/PI3K/AKT/mTOR signaling in human U87 cells assessed as up regulation of ATPase phospholipid transporting 11C gene expression at cytotoxic IC50 measured after 48 hrs relative to control
[14] = Inhibition of RTK/PI3K/AKT/mTOR signaling in human U87 cells assessed as up regulation of PEST proteolytic signal containing nuclear protein gene expression at cytotoxic IC50 measured after 48 hrs relative to control
[15] = Inhibition of RTK/PI3K/AKT/mTOR signaling in human U87 cells assessed as down regulation of PHC3 gene expression at cytotoxic IC50 measured after 48 hrs relative to control
[16] = Inhibition of RTK/PI3K/AKT/mTOR signaling in human U87 cells assessed as down regulation of PIM1 gene expression at cytotoxic IC50 measured after 48 hrs relative to control
[17] = Inhibition of RTK/PI3K/AKT/mTOR signaling in human U87 cells assessed as down regulation of MDM1 gene expression at cytotoxic IC50 measured after 48 hrs relative to control
[18] = Inhibition of RTK/PI3K/AKT/mTOR signaling in human U87 cells assessed as down regulation of DHRS2 gene expression at cytotoxic IC50 measured after 48 hrs relative to control
[19] = Inhibition of RTK/PI3K/AKT/mTOR signaling in human U87 cells assessed as down regulation of GBP2 gene expression at cytotoxic IC50 measured after 48 hrs relative to control
[20] = Inhibition of RTK/PI3K/AKT/mTOR signaling in human U87 cells assessed as down regulation of SAMHD1 gene expression at cytotoxic IC50 measured after 48 hrs relative to control
[21] = Inhibition of RTK/PI3K/AKT/mTOR signaling in human U87 cells assessed as down regulation of HSPE1 gene expression at cytotoxic IC50 measured after 48 hrs relative to control
[22] = Inhibition of RTK/PI3K/AKT/mTOR signaling in human U87 cells assessed as up regulation of ATP binding cassette subfamily G member 1 gene expression at cytotoxic IC50 measured after 48 hrs relative to control
[23] = Inhibition of RTK/PI3K/AKT/mTOR signaling in human U87 cells assessed as up regulation of mitogen-activated protein kinase kinase kinase kinase 5 gene expression at cytotoxic IC50 measured after 48 hrs relative to control
[24] = Inhibition of RTK/PI3K/AKT/mTOR signaling in human U87 cells assessed as down regulation of PPP1R15B gene expression at cytotoxic IC50 measured after 48 hrs relative to control
[25] = Inhibition of RTK/PI3K/AKT/mTOR signaling in human U87 cells assessed as up regulation of shroom family member 3 gene expression at cytotoxic IC50 measured after 48 hrs relative to control
[26] = Inhibition of RTK/PI3K/AKT/mTOR signaling in human U87 cells assessed as up regulation of laminin subunit alpha 5 gene expression at cytotoxic IC50 measured after 48 hrs relative to control
[27] = Inhibition of RTK/PI3K/AKT/mTOR signaling in human U87 cells assessed as up regulation of peroxiredoxin 4 gene expression at cytotoxic IC50 measured after 48 hrs relative to control
[28] = Inhibition of RTK/PI3K/AKT/mTOR signaling in human U87 cells assessed as down regulation of PCSK7 gene expression at cytotoxic IC50 measured after 48 hrs relative to control
[29] = Inhibition of RTK/PI3K/AKT/mTOR signaling in human U87 cells assessed as up regulation of IGF2BP2 gene expression at cytotoxic IC50 measured after 48 hrs relative to control
[30] = Inhibition of RTK/PI3K/AKT/mTOR signaling in human U87 cells assessed as up regulation of discs large MAGUK scaffold protein 1 gene expression at cytotoxic IC50 measured after 48 hrs relative to control
[31] = Inhibition of RTK/PI3K/AKT/mTOR signaling in human U87 cells assessed as down regulation of HMG20B gene expression at cytotoxic IC50 measured after 48 hrs relative to control
[32] = Inhibition of RTK/PI3K/AKT/mTOR signaling in human U87 cells assessed as up regulation of DGAT2 gene expression at cytotoxic IC50 measured after 48 hrs relative to control

`CC(=O)C(=NNc1ccccc1C#N)C(C)=O` showed a log2FC [1] of -1.7, a log2FC [2] of 0.704 and a log2FC [3] of -1.33. The log2FC [4] was -0.513, the log2FC [5] was -0.776 and the log2FC [6] was -0.503. It also gave a log2FC [7] of -0.969, a log2FC [8] of 0.524 and a log2FC [9] of -0.789. For the same compound, the log2FC [10] was 1.23, the log2FC [11] was 1.4 and the log2FC [12] was 3.23. The log2FC [13] was 0.878, the log2FC [14] was 0.914 and the log2FC [15] was -0.709. It also gave a log2FC [16] of -0.724, a log2FC [17] of -1.01 and a log2FC [18] of -2.17. For the same compound, the log2FC [19] was -3.54, the log2FC [20] was -1.25 and the log2FC [21] was -0.651. For the same compound, the log2FC [22] was 1.47, the log2FC [23] was 0.716 and the log2FC [24] was -0.483. It also gave a log2FC [25] of 0.977, a log2FC [26] of 1.52 and a log2FC [27] of 0.721. It also gave a log2FC [28] of -1.16, a log2FC [29] of 0.385 and a log2FC [30] of 1.3. It also gave a log2FC [31] of -0.655 and a log2FC [32] of 2.4.
